Assay results as given in publication PMC4317163.

Sequences of proteins named here, by UniProt entry; tags and fusion partners are left off. A change or cut given only in a name is not applied to a line headed by its entry.
UniProt Q9VHG6: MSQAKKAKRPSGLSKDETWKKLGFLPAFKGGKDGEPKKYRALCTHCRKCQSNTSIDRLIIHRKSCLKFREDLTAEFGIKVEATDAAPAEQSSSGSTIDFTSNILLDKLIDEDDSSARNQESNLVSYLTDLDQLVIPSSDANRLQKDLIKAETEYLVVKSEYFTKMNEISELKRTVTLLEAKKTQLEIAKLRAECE

Target: T1, FLAG-CP190 (Drosophila) (UniProt Q24478)
T1 sequence: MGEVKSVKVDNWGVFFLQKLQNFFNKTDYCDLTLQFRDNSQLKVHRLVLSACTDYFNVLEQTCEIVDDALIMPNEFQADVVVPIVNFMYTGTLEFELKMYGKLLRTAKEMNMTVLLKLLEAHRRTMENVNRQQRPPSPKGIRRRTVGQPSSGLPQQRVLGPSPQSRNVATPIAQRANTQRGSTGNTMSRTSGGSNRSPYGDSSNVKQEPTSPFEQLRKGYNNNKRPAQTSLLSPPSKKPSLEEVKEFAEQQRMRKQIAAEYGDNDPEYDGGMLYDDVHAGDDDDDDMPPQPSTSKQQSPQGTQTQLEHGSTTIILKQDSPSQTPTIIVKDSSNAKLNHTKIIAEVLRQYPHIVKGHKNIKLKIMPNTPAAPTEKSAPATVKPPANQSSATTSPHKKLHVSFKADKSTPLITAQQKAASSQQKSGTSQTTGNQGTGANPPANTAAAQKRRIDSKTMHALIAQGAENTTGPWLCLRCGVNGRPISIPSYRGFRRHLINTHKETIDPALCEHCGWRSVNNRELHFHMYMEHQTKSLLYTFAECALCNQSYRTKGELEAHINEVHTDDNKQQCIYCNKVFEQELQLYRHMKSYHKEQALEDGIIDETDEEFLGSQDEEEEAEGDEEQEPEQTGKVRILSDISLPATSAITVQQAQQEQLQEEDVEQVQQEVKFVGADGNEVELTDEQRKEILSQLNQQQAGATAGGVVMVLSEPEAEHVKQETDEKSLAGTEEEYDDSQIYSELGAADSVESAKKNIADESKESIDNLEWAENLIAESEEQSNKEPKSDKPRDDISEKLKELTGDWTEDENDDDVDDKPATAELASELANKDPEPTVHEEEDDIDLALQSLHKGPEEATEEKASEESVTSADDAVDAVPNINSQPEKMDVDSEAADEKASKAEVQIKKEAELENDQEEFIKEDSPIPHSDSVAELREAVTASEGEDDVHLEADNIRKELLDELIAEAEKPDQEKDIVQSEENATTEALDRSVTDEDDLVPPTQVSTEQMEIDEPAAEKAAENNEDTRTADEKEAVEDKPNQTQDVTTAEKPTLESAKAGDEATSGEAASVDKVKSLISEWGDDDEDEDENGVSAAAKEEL
Assay: affinity purification with mass spectrometry; FLAG-CP190 purified from extract of stably transfected S2 cells with or without CuSO4 induction; proteins enriched more than threefold in the induced sample counted as interacting

Chromator (Drosophila (endogenous in S2 cells))
binding: binds

Ibf1 (Drosophila (endogenous in S2 cells))
binding: binds

Ibf2 (from UniProt Q9VHG6)
binding: binds

Map60 (CP60) (Drosophila (endogenous in S2 cells))
binding: binds

B1: ZIPIC (endogenous, S2 cells) (protein, UniProt Q9VAB8 1-457)
chain: MNCCICQFSVRVPKDIHTDTVGHPPVLISELVLQCTRGTNYVLTEESSTICKKCCEKLARYHKSIQIARKLRGEILELIHSPYMSKDHKQTSYKEDDLDRETTISKFDGNIEEAQQQDEEEQELESVGTTVTLVGPAGIVEEVAEEEHTFIIKQSEEEDEFHSVDLELDIDNEIIINEEEAHEVEEVAHEIEEVAHEIEEEDLLPHDKQEAQEEDFFKEDTMSDFDEHLDGAIEYIISDGEDQEQDNESSGEYTVNIQCPSCPEKFSSRRAYNVHTKREHFPGYVCDQCGKTLQSYSGFIGHLQNHEPVKQFACPVCPERFSRKFRLKHHMAWHSGETPYQCDVCSKRFVHKVALYKHKMIHDSETKRLECQVCGFKTRTKAHLERHMRSHTGDKPFACPVCNKRFSQMYNMKAHLREHESPGTNRHRRFHCSKCTHTFINEQNYDAHVQRDDCTPV
binding: binds

B2: CTCF (endogenous, S2 cells) (protein, UniProt Q9VS55 1-818)
chain: MPRRTKKDEDPEDLQTFLNNFHKEIEGNSDEKVVNTILEAISAEAIDLDENGAEAGGSKPMEEAEADLDHAEEAEEEEEDDEDKYFIDDEGNCYIKTTPKKQKELQKKLKQAAAKPGKATRSVVSTATNKSINLRPAKSTPKATTSKPPPEPKAISVRPARAAAAKAKQSAMPPPPALVVKVPAPRGRPRKNPVIPKPEPMDLERELEELVDEPDISSMVTELSDYTVDEAAVEAATATLTPNEAEVYEFEDNATTEDENADKKDVDFVLSNKEVKLKTASSTSQNSNASGHKYSCPHCPYTASKKFLITRHSRSHDVEPSFKCSICERSFRSNVGLQNHINTHMGNKPHKCKLCESAFTTSGELVRHTRYKHTKEKPHKCTECTYASVELTKLRRHMTCHTGERPYQCPHCTYASQDMFKLKRHMVIHTGEKKYQCDICKSRFTQSNSLKAHKLIHSVVDKPVFQCNYCPTTCGRKADLRVHIKHMHTSDVPMTCRRCGQQLPDRYQYKLHVKSHEGEKCYSCKLCSYASVTQRHLASHMLIHLDEKPFHCDQCPQAFRQRQLLRRHMNLVHNEEYQPPEPREKLHKCPSCPREFTHKGNLMRHMETHDDSANAREKRRRLKLGRNVRLQKDGTVITLIKDQYVDMDRDQEENEEDDNPESYDLAEIEPENSEAEDADDDVETIVSDPIRQRIKPAPIIINKQARLAASEKQPMIINQRLRSQRGTKTFHIKEEPDNSDFTVEWQGDDGEVMVVELVNGDEEVLVKHEPSANSKISAKNCFGFEDDDDYEEYGDGENEVDGASQEFLQLMDMIEQDS
binding: binds

B3: Su(Hw) (protein, UniProt P08970 1-941)
chain: MSASKEGKEKKGKLLGVENISPPKDKRPATRMKLLNDVGAGEDSEASTTTTTSRTPSNKQEKRGSVAGSRIKILNEEILGTPKTEKRGATKSTAPAASTVKILNEKKTPSATVTAVETTKIKTSPSKRKKMEHYVLQAVKSENTKADTTVTVVTEEDDTIDFILADDEEVVPGRIENNNGQEIVVTEDDEDLGEDGDEDGEDSSGKGNSSQTKIKEIVEHVCGKCYKTFRRVQSLKKHLEFCRYDSGYHLRKADMLKNLEKIEKDAVVMEKKDICFCCSESYDTFHLGHINCPDCPKSFKTQTSYERHIFITHSEFSDFPCSICNANLRSEALLALHEEQHKSRGKPYACKICGKDFTRSYHLKRHQKYSSCSSNETDTMSCKVCDRVFYRLDNLRSHLKQHLGTQVVKKPEYMCHTCKNCFYSLSTLNIHIRTHTGEKPFDCDLCDKKFSALVALKKHRRYHTGEKPYSCTVCNQAFAVKEVLNRHMKRHTGERPHKCDECGKSFIQATQLRTHSKTHIRPFPCEQCDEKFKTEKQLERHVKTHSRTKRPVFSCAECKRNFRTPALLKEHMDEGKHSPKQQRSSMRSAVKIMERTDCAICDKNFDSSDTLRRHIRTVHECDPDDIFGVEPHPSKRAKKDIESEEVVPVALNTSAGSLISSQTDGNGVVVREFLVDEGDGAAQTITLENETYTILPLDGAIEGEQLTDEAGVKPEAKKEEAQVSPVVKKEQRKSLAASLAAAIADNLEESCSEDDFSGEILTEEDIKLKENVGKLIDMLVDPPILKKYGWPNAPEETVLCKVIENCGHDLTKGGENYAELDYGSRMREYCKLLFTVVIHNDSIKSLLNNFPIDDVIEYVLGDEDQDEGGLDKDNESHSGDEEAVSVTGETKTNEIREKPEKKEVSAKSEKKEIVGKAVDKDNSEEVVRENKKKPVGEQEKA
binding: binds

B4: Pita (endogenous, S2 cells) (protein, UniProt Q95RQ8 1-683)
chain: MAAKLEVREAMLTEKRVCRFCLTEQKLASIFEENPRVKTTANLPLQIMAITAIEVYAGDGMPGHICLECRLLFEHCYRFKQMCKRAETLLRQYPLTGNWPSPLEKPRAPMTMVASKKLLVVPAKTAEPSETPKKLLNTMAKSSSQVIIEDVQVLESAMVTPRTVAGSSPVPRRSHAYELKVDNNQELSMDDVQSMLEDMASELEKEFPDIPQKASPVKPKVLNKSSIRILNKGPAAPVEPRLATPKVKRDDSGNVAIVTEVLDSDLPLDDQDDPTKNAEKVATDVFPCPDCERSFPLQQLLEIHRLNHTRSRSFQCLLCEKSFFSKYDLAKHNFVHTGERPFKCAICSKAFTRKALLHRHERTHTDVPKFICVYCEKPFLSRQEMEKHAERHQKKRPFQCGVCTKSFAFKQGLERHETVHSTNLPFPCQHCERSFSTASKLARHLVAHAGKRAYPCKYCHKSYMLSHHLSRHLRTHTQTSDASFVCSECKVSYSNYNDLLDHALIHATASLKCPMCRKQIEDIDSVESHMDQHKQSERHACEFCDHIFLTQKCLQRHIEDDHVVEMEPYQNEFEDDGEGEGGVDEKEEHLDDFEDMDNVKQEEFVTEYLEDDALYEDHLDDSDESFTPPPPKQRKTNPPKDAQQSVRQTRSRDAQRITQKTGKNEGKPHHKLERNLKNRRSAK
binding: binds

Results are given in words; binding and its absence hold for the method and conditions named. Binding seen in cells or lysates may run through a third protein. A yes stands for co-enrichment or nearness to the bait. Other partners may have been found. Sequences can lack the tags named with a protein.
